Experimental data reported in patent publication US20110085986A1, “Diagnosis and treatment of epithelial cancers using labeled/conjugated progastrin peptides” (priority 2009, published 2011).
These are yes or no findings as the source states them, for the method shown. Some entries that bind do so weakly or less than the wild type.

Protein sequences, listed by entry. Tags and fused reporters are not part of them. Residues count along the entry.
UniProt Q07936, residues 2-339: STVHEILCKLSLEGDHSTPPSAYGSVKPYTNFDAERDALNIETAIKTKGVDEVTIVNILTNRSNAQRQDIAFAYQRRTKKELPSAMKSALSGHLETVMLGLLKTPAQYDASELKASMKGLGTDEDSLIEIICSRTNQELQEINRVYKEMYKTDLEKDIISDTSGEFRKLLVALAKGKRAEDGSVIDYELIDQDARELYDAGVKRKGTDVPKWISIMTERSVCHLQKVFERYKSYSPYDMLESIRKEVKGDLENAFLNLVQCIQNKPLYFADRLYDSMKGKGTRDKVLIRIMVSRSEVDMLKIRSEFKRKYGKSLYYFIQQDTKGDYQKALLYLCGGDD
UniProt P07355, residues 2-339: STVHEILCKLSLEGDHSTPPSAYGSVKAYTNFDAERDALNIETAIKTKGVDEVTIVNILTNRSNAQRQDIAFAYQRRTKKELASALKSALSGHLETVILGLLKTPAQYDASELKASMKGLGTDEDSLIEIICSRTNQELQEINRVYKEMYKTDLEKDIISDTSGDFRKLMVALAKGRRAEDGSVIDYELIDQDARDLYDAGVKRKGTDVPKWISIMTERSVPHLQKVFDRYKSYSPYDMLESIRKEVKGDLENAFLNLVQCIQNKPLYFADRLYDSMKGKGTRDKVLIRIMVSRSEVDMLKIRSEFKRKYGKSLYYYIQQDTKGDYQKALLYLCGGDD

Columns and labels:
[1] = molecular target: Annexin A2 on AR42J cells and IEC-18 cells (UniProt Q07936); experiment: immunofluorescence co-localization in cells (IEC)
[2] = molecular target: Annexin A2 in HEK-293 cells (UniProt P07355); experiment: immunofluorescence co-localization in cells (HEK-293)
[3] = molecular target: Annexin A2 on AR42J cells and IEC-18 cells (UniProt Q07936); experiment: displacement of 125I rhPG from ANX-II on AR42J cells (FIG. 2)
[4] = molecular target: Annexin A2 on AR42J cells and IEC-18 cells (UniProt Q07936); experiment: confocal immunofluorescence co-localization on IEC-18 cells (FIG. 6A)
[5] = molecular target: Annexin A2 on AR42J cells and IEC-18 cells (UniProt Q07936); experiment: PG binding/uptake imaging on IEC-18 cells after Anx A2 siRNA versus control siRNA (FIG. 6E)
[6] = molecular target: Annexin A2 on AR42J cells and IEC-18 cells (UniProt Q07936); experiment: IEC-18 cells: co-localization, pull down with anti-PG-Ab and Western blot for ANXII, ANX-II siRNA
[7] = molecular target: T1, CCK2R on AR42J cells (UniProt P30553); experiment: displacement of 125I-BH-CCK8 from CCK2R on AR42J cells (FIG. 2)
T1 sequence (looked up): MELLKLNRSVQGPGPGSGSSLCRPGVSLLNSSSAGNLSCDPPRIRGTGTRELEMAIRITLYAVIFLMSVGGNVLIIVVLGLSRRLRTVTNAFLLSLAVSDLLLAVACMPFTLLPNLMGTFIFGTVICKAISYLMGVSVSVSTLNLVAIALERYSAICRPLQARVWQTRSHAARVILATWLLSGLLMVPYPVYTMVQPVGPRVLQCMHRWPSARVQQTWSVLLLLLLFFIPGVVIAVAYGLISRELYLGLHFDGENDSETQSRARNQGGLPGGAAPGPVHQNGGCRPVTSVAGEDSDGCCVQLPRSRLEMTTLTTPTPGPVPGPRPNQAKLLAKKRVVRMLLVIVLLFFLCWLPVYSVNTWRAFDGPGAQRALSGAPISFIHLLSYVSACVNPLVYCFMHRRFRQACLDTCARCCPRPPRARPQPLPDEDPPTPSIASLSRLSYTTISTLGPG

Measured: binding

B1: full length 80 amino acid recombinant progastrin (rhPG) (ligand)
chain: SWKPRSQQPDAPLGTGANRDLELPWLEQQGPASHHRRQLGPQGPPHLVADPSKKQGPWLEEEEEAYGWMDFGRRSAEDEN
not listed: [7]
binds: all other assays above

QGPWLEEEEEAYGWMDF (peptide, UniProt P01350 76-92, looked up, amidated on the carboxyl terminus) [gastrin G17 (amidated gastrin)]
binds: [7]
